Reference: patent US20250019435A1
Results are given in words; binding and its absence hold for the method and conditions named. Some binding calls cover weakened binding; strength is not graded here. Sequences can lack the tags named with a protein.

Amino acid sequences for entries named in this document (tags omitted). A change or cut given only in a name is not applied to a line headed by its entry.
UniProt Q8N109: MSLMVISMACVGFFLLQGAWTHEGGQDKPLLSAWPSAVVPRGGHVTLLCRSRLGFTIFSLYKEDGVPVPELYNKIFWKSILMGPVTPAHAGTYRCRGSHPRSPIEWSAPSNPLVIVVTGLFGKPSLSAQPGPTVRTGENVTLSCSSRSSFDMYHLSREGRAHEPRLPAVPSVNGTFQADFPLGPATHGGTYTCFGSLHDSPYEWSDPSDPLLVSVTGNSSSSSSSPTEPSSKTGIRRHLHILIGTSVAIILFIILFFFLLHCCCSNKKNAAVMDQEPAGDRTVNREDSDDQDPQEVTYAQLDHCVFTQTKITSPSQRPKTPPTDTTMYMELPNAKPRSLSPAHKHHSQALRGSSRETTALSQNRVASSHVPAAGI

T1: PVR expressed on transduced cells (PVR-YFP) (UniProt P15151)
T1 sequence (looked up): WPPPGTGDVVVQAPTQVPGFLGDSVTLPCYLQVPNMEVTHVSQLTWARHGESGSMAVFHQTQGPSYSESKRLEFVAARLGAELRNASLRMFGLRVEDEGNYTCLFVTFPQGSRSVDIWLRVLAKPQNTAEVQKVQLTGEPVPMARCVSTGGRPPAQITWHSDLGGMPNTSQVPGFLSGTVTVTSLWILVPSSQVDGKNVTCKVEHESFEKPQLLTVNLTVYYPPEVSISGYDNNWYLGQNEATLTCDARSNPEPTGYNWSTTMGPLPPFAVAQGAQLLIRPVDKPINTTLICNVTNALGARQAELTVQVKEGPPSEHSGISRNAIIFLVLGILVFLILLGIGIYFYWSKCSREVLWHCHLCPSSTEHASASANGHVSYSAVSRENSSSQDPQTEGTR


Experiments:
[1] = biological target: T1, PVR expressed on transduced cells (PVR-YFP); experiment: flow cytometry, PVR/3T3 cells preincubated with CD96-His, then KIR2DL5-Ig
[2] = biological target: KIR2DL5 D0 variant G97S expressed on 3T3 cells (human) (UniProt Q8N109); experiment: flow cytometry, PVR-Ig on transduced 3T3 cells
[3] = biological target: KIR2DL5 D0 variant T46S expressed on 3T3 cells (human) (UniProt Q8N109); experiment: flow cytometry, PVR-Ig on transduced 3T3 cells
[4] = biological target: KIR2DL5 D0 variant R52H expressed on 3T3 cells (human) (UniProt Q8N109); experiment: flow cytometry, PVR-Ig on transduced 3T3 cells
[5] = biological target: KIR2DL5 wild type (KIR2DL5A*001) expressed on cells (human) (UniProt Q8N109); experiment: flow cytometry, PVR-Ig on transduced 3T3 cells
[6] = biological target: KIR2DL5 D0 variant P112S expressed on 3T3 cells (human) (UniProt Q8N109); experiment: flow cytometry, PVR-Ig on transduced 3T3 cells
[7] = biological target: KIR2DL5 D0 variant G97S expressed on 3T3 cells (human) (UniProt Q8N109); experiment: flow cytometry, PVR-Ig on 3T3 cells expressing the variant
[8] = biological target: KIR2DL5 D0 variant T46S expressed on 3T3 cells (human) (UniProt Q8N109); experiment: as above
[9] = biological target: KIR2DL5 D0 variant R52H expressed on 3T3 cells (human) (UniProt Q8N109); experiment: as above
[10] = biological target: KIR2DL5 D0 variant P112S expressed on 3T3 cells (human) (UniProt Q8N109); experiment: as above
[11] = biological target: KIR2DL5 wild type (KIR2DL5A*001) expressed on cells (human) (UniProt Q8N109); experiment: flow cytometry, PVR-Ig preincubated with His-tagged protein, on KIR2DL5/3T3 cells
[12] = biological target: KIR2DL5 wild type (KIR2DL5A*001) expressed on cells (human) (UniProt Q8N109); experiment: flow cytometry, PVR-Ig 20 µg/mL preincubated with the His-tagged proteins, then KIR2DL5/3T3
[13] = biological target: KIR2DL5 wild type (KIR2DL5A*001) expressed on cells (human) (UniProt Q8N109); experiment: flow cytometry, fusion protein on KIR2DL5/3T3, anti-human IgG Fc detection
[14] = biological target: KIR2DL5 wild type (KIR2DL5A*001) expressed on cells (human) (UniProt Q8N109); experiment: flow cytometry competition with His-tagged TIGIT, CD96 and DNAM-1 (discussion of the examples)
[15] = biological target: KIR2DL5 wild type (KIR2DL5A*001) expressed on cells (human) (UniProt Q8N109); experiment: flow cytometry, PVR-Ig on 3T3 cells expressing the allele
[16] = biological target: KIR2DL5 wild type (KIR2DL5A*001) expressed on cells (human) (UniProt Q8N109); experiment: flow cytometry, PVR-Ig on KIR2DL5/3T3 cells
[17] = biological target: KIR2DL5 wild type (KIR2DL5A*001) expressed on cells (human) (UniProt Q8N109); experiment: flow cytometry, PVR-Ig titrated on KIR2DL5/3T3
[18] = biological target: KIR2DL5 wild type (KIR2DL5A*001) expressed on cells (human) (UniProt Q8N109); experiment: flow cytometry, PVR-Ig on transduced 3T3 cells (discussion of the examples)
[19] = biological target: KIR2DL5 wild type (KIR2DL5A*001) expressed on cells (human) (UniProt Q8N109); experiment: flow cytometry, PVR-Ig preincubated with His-tagged DNAM-1, TIGIT or CD96, on KIR2DL5/3T3 cells
[20] = biological target: KIR2DL5 wild type (KIR2DL5A*001) expressed on cells (human) (UniProt Q8N109); experiment: flow cytometry, PVR-Ig on 3T3 cells expressing KIR2DL5 alleles

binding [1]	binding [2]	binding [3]	binding [4]	binding [5]	binding [6]	binding [7]	binding [8]	binding [9]	binding [10]	binding [11]	binding [12]	binding [13]	binding [14]	binding [15]	binding [16]	binding [17]	binding [18]	binding [19]	binding [20]	Binder
binds	–	–	–	–	–	–	–	–	–	–	–	–	–	–	–	–	–	–	–	recombinant human CD96-His tag protein (receptor, UniProt P40200-2 22-503, looked up, not shown: small tags and cut ends) VWEKTVNTEENVYATLGSDVNLTCQTQTVGFFVQMQWSKVTNKIDLIAVYHPQYGFYCAYGRPCESLVTFTETPENGSKWTLHLRNMSCSVSGRYECMLVLYPEGIQTKIYNLLIQTHVTADEWNSNHTIEIEINQTLEIPCFQNSSSKISSEFTYAWSVEDNGTQETLISQNHLISNSTLLKDRVKLGTDYRLHLSPVQIFDDGRKFSCHIRVGPNKILRSSTTVKVFAKPEIPVIVENNSTDVLVERRFTCLLKNVFPKANITWFIDGSFLHDEKEGIYITNEERKGKDGFLELKSVLTRVHSNKPAQSDNLTIWCMALSPVPGNKVWNISSEKITFLLGSEISSTDPPLSVTESTLDTQPSPASSVSPARYPATSSVTLVDVSALRPNTTPQPSNSSMTTRGFNYPWTSSGTDTKKSVSRIPSETYSSSPSGAGSTLHDNVFTSTARAFSEVPTTANGSTKTNHVHITGIVVNKPKDGM
–	binds	binds	binds	binds	binds	binds	binds	binds	binds	binds	binds	binds	binds	binds	binds	binds	binds	binds	binds	PVR-Ig fusion protein (Fc fusion, UniProt P15151 27-343, looked up, not shown: a dimerising Fc or GST) GDVVVQAPTQVPGFLGDSVTLPCYLQVPNMEVTHVSQLTWARHGESGSMAVFHQTQGPSYSESKRLEFVAARLGAELRNASLRMFGLRVEDEGNYTCLFVTFPQGSRSVDIWLRVLAKPQNTAEVQKVQLTGEPVPMARCVSTGGRPPAQITWHSDLGGMPNTSQVPGFLSGTVTVTSLWILVPSSQVDGKNVTCKVEHESFEKPQLLTVNLTVYYPPEVSISGYDNNWYLGQNEATLTCDARSNPEPTGYNWSTTMGPLPPFAVAQGAQLLIRPVDKPINTTLICNVTNALGARQAELTVQVKEGPPSEHSGISRN
